Assay results published in article PMC3763546, “Structural insight into negative DNA supercoiling by DNA gyrase, a bacterial type 2A DNA topoisomerase” (Nucleic Acids Research, 2013).
These are yes or no findings as the source states them, for the method shown. Some results given as binding are weak or reduced against the parent protein; the word gives no strength. For some assays here: Sequences can lack the tags named with a protein.

Key:
[1] = biological target: Thermus thermophilus DNA gyrase subunit B (GyrB), as it stands in GyrBA-fus (Thermus thermophilus) (UniProt Q5SHZ4); test: cryo-EM structure; DNA-bound complex: GyrBA-fus with 155 bp DNA, ciprofloxacin and ADPNP; single-particle reconstruction, no symmetry applied, 23 A (FSC 0.5); crystal structures of homologous domains fitted; both purified
[2] = biological target: T1, Thermus thermophilus DNA gyrase subunit A (GyrA), as it stands in GyrBA-fus (Thermus thermophilus) (UniProt Q5SIL4); test: cryo-EM structure; holoenzyme: GyrBA-fus with ADPNP, cross-linked with glutaraldehyde; single-particle reconstruction, 2-fold symmetry applied in the last refinement step, 16.9 A (FSC 0.5); crystal structures of homologous domains fitted; both purified
T1 sequence: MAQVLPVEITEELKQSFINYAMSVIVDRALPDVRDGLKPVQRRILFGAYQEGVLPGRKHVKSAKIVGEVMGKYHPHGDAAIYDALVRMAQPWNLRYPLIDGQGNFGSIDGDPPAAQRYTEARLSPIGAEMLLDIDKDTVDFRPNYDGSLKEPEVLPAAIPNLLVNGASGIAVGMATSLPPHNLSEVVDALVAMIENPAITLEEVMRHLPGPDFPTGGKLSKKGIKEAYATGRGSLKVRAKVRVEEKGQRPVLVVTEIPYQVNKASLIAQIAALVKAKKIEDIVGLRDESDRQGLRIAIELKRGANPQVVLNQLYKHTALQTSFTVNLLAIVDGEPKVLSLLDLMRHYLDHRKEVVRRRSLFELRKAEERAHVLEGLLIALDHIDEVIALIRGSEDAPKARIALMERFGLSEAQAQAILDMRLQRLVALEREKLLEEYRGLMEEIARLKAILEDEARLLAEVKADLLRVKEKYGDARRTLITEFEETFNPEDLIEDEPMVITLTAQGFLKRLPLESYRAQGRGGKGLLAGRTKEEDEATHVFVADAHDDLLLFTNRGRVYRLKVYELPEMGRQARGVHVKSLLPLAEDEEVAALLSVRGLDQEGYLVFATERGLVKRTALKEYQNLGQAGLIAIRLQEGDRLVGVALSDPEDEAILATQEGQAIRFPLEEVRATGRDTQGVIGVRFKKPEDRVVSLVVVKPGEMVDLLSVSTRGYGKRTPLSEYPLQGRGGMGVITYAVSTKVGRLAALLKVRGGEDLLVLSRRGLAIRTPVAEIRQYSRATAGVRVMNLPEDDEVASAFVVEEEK

- binding [1]: binds
- binding [2]: binds
Substance: Thermus thermophilus DNA gyrase subunit B (GyrB), as it stands in GyrBA-fus (from UniProt Q5SHZ4 1-634) (enzyme)
